This passage reports survivor count and T/C results from PubChem BioAssay AID192 (DTP/NCI, 2004).

The list shows only some results of the screen, not a fair sample: it is rich in T/C values a quarter to a half above the control, in often repeated tests (any T/C) and in doses without a T/C. Other doses and runs of a compound stand elsewhere. T/C: endpoint of the treated group in % of that of the vehicle group. Some entries give survivors of the animals treated and no T/C: the source files T/C as zero there, which appears to mark a toxic dose or a test without result, not a measured value. Some survivor counts are full or nearly so, which does not show that the dose was tolerated: survival well below the control is almost never listed, so the zero probably covers shortened survival too. Counts of survivors are from the toxicity check (mostly the fifth day) where no day follows; animals may have died later. Schedule codes are those of the source, taken here to give the interval after Q, in days (D) or hours (H), and the number of doses after X. Some doses were run more than once; the values are given in rising order. Where survival is the endpoint, this PubChem deposit counts one and a half times the control or more as active, and values a quarter to a half above the control carry no call in these data; other NCI protocols may use other cut-offs.

This test deals with BDF1 mice, B16 melanoma ip, median survival T/C. Put plainly: NCI In Vivo Anticancer Drug Screen. Data for tumor model B16 Melanoma (intraperitoneal) in B6D2F1 (BDF1) mice. Conditions: T/C endpoint: median survival time, higher T/C = longer survival. In a few lines:
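Each result divides a survival or tumor-size measurement in the compound-treated group by the same measurement in the vehicle group.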

Where [1] appears, read: dose: 100.0 mg/kg/injection, schedule: Q04DX003 (ip), vehicle: Klucel (hydroxypropylcellulose) (HPC).
Setting [2] is: dose: 0.5 mg/kg/injection, schedule: Q01DX009 (ip), vehicle: other.
Where [3] appears, read: dose: 1.0 mg/kg/injection, schedule: Q01DX009 (ip), vehicle: other.
Where [4] appears, read: dose: 400.0 mg/kg/injection, schedule: Q01DX009 (ip), vehicle: Klucel (hydroxypropylcellulose) (HPC).

As for `CC[N+](CC)(CC)CC.N#C/C([SH2+])=C(/[SH2+])C#N.N#C/C([SH2+])=C(/[SH2+])C#N.[Cu+2]`, the survivor count is, setting by setting: (dose: 50.0 mg/kg/injection, schedule: Q04DX003 (ip), vehicle: Klucel (hydroxypropylcellulose) (HPC)) 2 of 10 and 9 of 10; under setting [1], 0 of 10; (dose: 200.0 mg/kg/injection, schedule: Q04DX003 (ip), vehicle: Klucel (hydroxypropylcellulose) (HPC)) 0 of 10.
Take `COC1=C(N2CC2)C(=O)C(OC)=C(N2CC2)C1=O`: the T/C under setting [2] is 132 % of control; the T/C (dose: 0.5 mg/kg/injection, schedule: Q01DX009 (ip), vehicle: saline with Tween-80) was 134 % of control; the T/C under setting [3] was 132 % of control; the T/C (dose: 1.3 mg/kg/injection, schedule: Q01DX009 (ip), vehicle: other) is 141 % of control; the T/C (dose: 2.0 mg/kg/injection, schedule: Q01DX009 (ip), vehicle: other) was 149 % of control. For the same molecule, the survivor count is 10 of 10 under setting [2]; 10 of 10 under setting [3]; 10 of 10 (dose: 2.0 mg/kg/injection, schedule: Q01DX009 (ip), vehicle: saline with Tween-80); 10 of 10 (dose: 3.0 mg/kg/injection, schedule: Q01DX009 (ip), vehicle: other); 9 of 10 and 10 of 10 (dose: 4.0 mg/kg/injection, schedule: Q01DX009 (ip), vehicle: other); 10 of 10 (dose: 4.0 mg/kg/injection, schedule: Q01DX009 (ip), vehicle: saline with Tween-80).
On to `O=[N+]([O-])c1ccc([S][Pb]([c]2ccccc2)([c]2ccccc2)[c]2ccccc2)cc1`, for which the survivor count under setting [1] is given as 10 of 10.
In the case of `CN(C)CCC[N+]1([O-])c2ccccc2CCc2ccccc21`, the survivor count reads like this: (dose: 75.0 mg/kg/injection, schedule: Q01DX009 (ip), vehicle: saline) 8 of 10; (dose: 150.0 mg/kg/injection, schedule: Q04DX003 (ip), vehicle: saline) 8 of 10; (dose: 300.0 mg/kg/injection, schedule: Q04DX003 (ip), vehicle: saline) 0 of 10.
Turning to `CCCCCCCCCCCCNC(=O)Nc1ccc(C)cc1C`, the survivor count under setting [4] is on record as 9 of 10.
Same read-out and setting: the result for `Cc1ccc(C)c(NC(=O)Nc2cccc(Cl)c2)c1` reads 9 of 10.
`CC[n+]1ccc(Nc2ccc(NC(=O)c3ccc(C(=O)Nc4ccc(Nc5cc[n+](CC)c(N)n5)cc4)cc3)cc2)nc1N`: the survivor count (dose: 6.25 mg/kg/injection, schedule: Q01DX009 (ip), vehicle: suspension in saline) is recorded as 10 of 10; the survivor count (dose: 100.0 mg/kg/injection, schedule: Q01DX009 (ip), vehicle: suspension in saline) is 10 of 10; the survivor count (dose: 200.0 mg/kg/injection, schedule: Q01DX009 (ip), vehicle: suspension in saline) is reported as 9 of 10. Further, the T/C (dose: 12.5 mg/kg/injection, schedule: Q01DX009 (ip), vehicle: suspension in saline) was 140 % of control.
On to `CCCCCCCCCCCC[N+](C)(C)C` (tested in a mixture with another compound), for which the survivor count (dose: 28.0 mg/kg/injection, schedule: Q01DX009 (ip), vehicle: saline) was 10 of 10.
With `O=[N+]([O-])O.[Cu+2].[NH-]CC[NH-].[NH-]CC[NH-]`, the survivor count is, setting by setting: (dose: 25.0 mg/kg/injection, schedule: Q01DX009 (ip), vehicle: saline) 6 of 10; (dose: 50.0 mg/kg/injection, schedule: Q01DX009 (ip), vehicle: saline) 0 of 10.
With `C[C@]12CCC(=O)C=C1CC[C@@H]1[C@@H]2C(=O)C[C@@]2(C)[C@H]1CC[C@]2(O)C(=O)CO`, under “dose: 320.0 mg/kg/injection, schedule: Q02DX009 (ip), vehicle: Klucel (hydroxypropylcellulose) (HPC)”, the survivor count is given as 10 of 10.
